Measured values taken from patent US10377754B2, “Hydrazonyl group-containing condensed heterocyclic compound or salt thereof, agricultural and horticultural insecticide comprising the compound, and method for using the insecticide” (Nihon Nohyaku Co., Ltd., priority 2016, dated 2019).
Some of these results come from one statement about several compounds together.

What was measured:
Format in all cases: in vivo
[1] = test system: Laodelphax striatellus; assay: Insecticidal test on Laodelphax striatellus (rice seedling dip); settings: 500 ppm, rice seedlings dipped 30 seconds, 3rd-instar larvae, 8 days after inoculation
[2] = test system: Myzus persicae; assay: Test for control efficacy on Myzus persicae (foliar application, potted Chinese cabbage); settings: 500 ppm, foliar application to potted Chinese cabbage, 6 days after application
[3] = test system: Plutella xylostella; assay: Insecticidal test on Plutella xylostella (Chinese cabbage seedlings with laid eggs, dip); settings: 500 ppm, seedlings with laid eggs dipped about 30 seconds, 25° C., 6 days after dip treatment

| Structure (SMILES) | insecticidal efficacy (corrected mortality rate), activity level [1] | control efficacy (control rate), activity level [2] | insecticidal efficacy (corrected mortality rate), activity level [3] |
| --- | --- | --- | --- |
| CCS(=O)(=O)c1cc(/C=N/NCC(F)(F)F)cnc1-c1nc2cc(C(F)(F)F)cnc2n1C [Compound 1-9, 2-(3-ethylsulfonyl-5-(2,2,2-trifluoroethyl)hydrazonylpyridin-2-yl)-3-methyl-6-trifluoromethyl-3H-imidazo[4,5-b]pyridine] | A (the corrected mortality rate is 100%) | A (the control rate is 100%) | A (the corrected mortality rate is 100%) |
| CCS(=O)(=O)c1cc(/C=N/N(C)CC(F)(F)F)cnc1-c1nc2cc(C(F)(F)F)cnc2n1C [Compound 1-50, 2-(3-ethylsulfonyl-5-{methyl(2,2,2-trifluoroethyl)hydrazonyl}pyridin-2-yl)-3-methyl-6-trifluoromethyl-3H-imidazo[4,5-b]pyridine] | A (the corrected mortality rate is 100%) | A (the control rate is 100%) | A (the corrected mortality rate is 100%) |
| CCN(CC(F)(F)F)/N=C/c1cnc(-c2nc3cc(C(F)(F)F)cnc3n2C)c(S(=O)(=O)CC)c1 [Compound 1-86, 2-(3-ethylsulfonyl-5-{ethyl(2,2,2-trifluoroethyl)hydrazonyl}pyridin-2-yl)-3-methyl-6-trifluoromethyl-3H-imidazo[4,5-b]pyridine] | A (the corrected mortality rate is 100%) | A (the control rate is 100%) | A (the corrected mortality rate is 100%) |
| CCS(=O)(=O)c1cc(/C=N/N(CC(F)(F)F)C(C)=O)cnc1-c1nc2cc(C(F)(F)F)cnc2n1C [Compound 1-124, 2-(3-ethylsulfonyl-5-{acetyl(2,2,2-trifluoroethyl)hydrazonyl}pyridin-2-yl)-3-methyl-6-trifluoromethyl-3H-imidazo[4,5-b]pyridine] | – | A (the control rate is 100%) | A (the corrected mortality rate is 100%) |
| CCS(=O)(=O)c1cc(/C=N/NCC(F)(F)F)cnc1-c1nc2cc(SC(F)(F)F)ccc2o1 [Compound 2-9, 2-[3-ethylsulfonyl-5-{(2,2,2-trifluoroethyl)hydrazonyl}pyridin-2-yl]-5-(trifluoromethylthio)benzo[d]oxazole] | – | – | A (the corrected mortality rate is 100%) |
| CCS(=O)(=O)c1cc(/C=N/N(CC(F)(F)F)C(C)=O)cnc1-c1nc2cc(SC(F)(F)F)ccc2o1 [Compound 2-124, 2-[3-ethylsulfonyl-5-{acetyl(2,2,2-trifluoroethyl)hydrazonyl}pyridin-2-yl]-5-(trifluoromethylthio)benzo[d]oxazole] | – | – | A (the corrected mortality rate is 100%) |
| CCS(=O)(=O)c1cc(/C=N/NS(C)(=O)=O)cnc1-c1nc2cc(SC(F)(F)F)ccc2o1 [Compound 2-420] | – | A (the control rate is 100%) | – |
